Data as given in PubChem BioAssay AID1053208 (Peter MacCallum Cancer Centre, 2014)
Here is a random part of about 17,000 reagents tested. 788 of them (4.7%) were called active. 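Calls rest on z-score classes alone; an extra cut-off of viability at most 70% of control was not applied to them.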 A number with no mark means an inactive call.

- Test: 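Synthetic lethal interactions between gene loss and doxorubicin in osteosarcoma cells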 (primary screen)
- System: mouse osteosarcoma cells, early-passage culture from an engineered mouse model of fibroblastic bone tumour
- Knock-down reagent: siRNA pool against mouse genes, 40 nM
- Timing: about 120 h (48 h before drug, then 72 h with drug)
- Treatment: doxorubicin 100 nM for 72 h, roughly 30-40% inhibitory dose
- Measured: 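Luminescent ATP signal taken as viability with or without 100 nM doxorubicin for 72 h; mean of two wells set against non-targeting siRNA and turned into robust z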
- Reading the numbers: viability z-score with doxorubicin and doxorubicin viability vs non-targeting: higher = more viable cells under doxorubicin; viability z-score without drug: higher = more viable cells with knock-down alone; z-score of drug to no-drug ratio: higher = less drug sensitisation by knock-down
- Call rule: 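Called active if knock-down leaves viability unchanged without drug (z within -2 to 2) but lowers it with doxorubicin (z at or under -2)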

gene symbol | combined z-score class | viability z-score with doxorubicin | viability z-score without drug | z-score of drug to no-drug ratio | doxorubicin viability vs non-targeting
ELL2 | high cell count without drug only | 1.24 | 2.53 | -0.34 | 1.05
Zfp574 | no change with or without drug | 0 | 0.17 | 0 | 0.94
Or51g2 | low cell count without drug only | -1.69 | -2.53 | 0.11 | 0.79
Fbxo32 | no change with or without drug | 0.67 | 1.18 | 0 | 1
Rps6ka3 | no change with or without drug | -0.45 | 0.84 | -0.9 | 0.9
Sycp1 | no change with or without drug | 1.46 | -0.51 | 2.02 | 1.07
2310002L09Rik | no change with or without drug | -1.01 | 0.34 | -1.12 | 0.85
D430033A06RIK | no change with or without drug | -0.45 | -0.51 | 0 | 0.9
Prpsap2 | no change with or without drug | 0.9 | 0.51 | 0.67 | 1.02
Dbr1 | no change with or without drug | 0.22 | 0.17 | 0.22 | 0.96
Crym | no change with or without drug | 0.67 | 1.01 | 0.11 | 1
Tnrc6b | no change with or without drug | -0.67 | 0.84 | -1.12 | 0.88
Ephx2 | no change with or without drug | 0.34 | -0.51 | 0.79 | 0.97
Fhit | no change with or without drug | 0.34 | 1.01 | -0.22 | 0.97
Taar9 | no change with or without drug | -1.35 | -0.51 | -1.01 | 0.82
Taf10 | no change with or without drug | -1.12 | -0.84 | -0.56 | 0.84
Or8g17 | no change with or without drug | 0.45 | 0.34 | 0.34 | 0.98
Steap3 | no change with or without drug | -1.12 | -1.01 | -0.45 | 0.84
Sh3bp2 | no change with or without drug | -1.12 | -1.18 | -0.34 | 0.84
Ca12 | no change with or without drug | 1.12 | -0.84 | 2.02 | 1.04
Rnh1 | high cell count without drug only | 1.57 | 2.19 | 0.22 | 1.08
Trpc1 | no change with or without drug | -0.11 | -0.17 | 0.11 | 0.93

Copied from the listing, 7 entries:
gene symbol | combined z-score class | viability z-score with doxorubicin | viability z-score without drug | z-score of drug to no-drug ratio | doxorubicin viability vs non-targeting
Sycp1 | no change with or without drug | 1.46 | -0.51 | 2.02 | 1.07
2310002L09Rik | no change with or without drug | -1.01 | 0.34 | -1.12 | 0.85
D430033A06RIK | no change with or without drug | -0.45 | -0.51 | 0 | 0.9
Prpsap2 | no change with or without drug | 0.9 | 0.51 | 0.67 | 1.02
Dbr1 | no change with or without drug | 0.22 | 0.17 | 0.22 | 0.96
Crym | no change with or without drug | 0.67 | 1.01 | 0.11 | 1
Tnrc6b | no change with or without drug | -0.67 | 0.84 | -1.12 | 0.88

More entries follow:
gene symbol | combined z-score class | viability z-score with doxorubicin | viability z-score without drug | z-score of drug to no-drug ratio | doxorubicin viability vs non-targeting
Arhgef9 | no change with or without drug | 0.22 | 1.18 | -0.45 | 0.96
Ugt2a3 | no change with or without drug | -0.9 | 0 | -0.79 | 0.86
Or8k27 | no change with or without drug | -0.11 | 0.34 | -0.22 | 0.93
Or10al7 | no change with or without drug | -1.46 | -0.84 | -0.9 | 0.81
Noxo1 | no change with or without drug | -0.67 | -1.35 | 0.34 | 0.88
Yars2 | no change with or without drug | -1.8 | -1.18 | -1.01 | 0.78
Lamp5 | no change with or without drug | -1.35 | 1.69 | -2.25 | 0.82
Or9a4 | no change with or without drug | -1.35 | -0.34 | -1.12 | 0.82
Arhgap12 | no change with or without drug | -0.11 | -0.84 | 0.56 | 0.93
Trmt112 | no change with or without drug | 0.22 | 1.01 | -0.34 | 0.96
Or4b1c | no change with or without drug | 0.45 | -0.84 | 1.24 | 0.98
Aar2 | low cell count with doxorubicin only (active) | -2.02 | -0.34 | -1.8 | 0.76
Cxcl3 | low cell count without drug only | -1.01 | -2.19 | 0.67 | 0.85
Cdcp1 | no change with or without drug | -0.56 | 0.51 | -0.79 | 0.89
Eci2 | no change with or without drug | 1.35 | 1.35 | 0.56 | 1.06
Snap25 | no change with or without drug | 1.57 | 0.51 | 1.35 | 1.08
Pfdn2 | no change with or without drug | 0.45 | 0.51 | 0.22 | 0.98
AY074887 | no change with or without drug | 1.57 | 0.17 | 1.69 | 1.08
6030443O07RIK | no change with or without drug | -0.9 | 1.52 | -1.69 | 0.86
Gldc | no change with or without drug | 0.11 | 0.67 | -0.22 | 0.95
Nek1 | high cell count with doxorubicin only | 2.25 | 0.84 | 1.8 | 1.14
Xpnpep2 | no change with or without drug | -0.79 | -1.52 | 0.34 | 0.87
Usp5 | low cell count with and without drug | -2.47 | -2.02 | -1.24 | 0.72
Mcoln1 | no change with or without drug | 0.9 | -0.17 | 1.24 | 1.02
Dmbt1 | no change with or without drug | 0.45 | 1.18 | -0.22 | 0.98
Cxcl13 | no change with or without drug | 0 | 0.34 | -0.11 | 0.94
Or4k15c | no change with or without drug | -0.45 | 0.17 | -0.45 | 0.9
Reep6 | no change with or without drug | 0.56 | 0.34 | 0.45 | 0.99
